Experiment: peptide made by a vendor
Settings: whole synthesis, mass spectrometry and HPLC

B1: … (peptide)
chain: RRRDEDESSDSSDSSDSSDSSDSSDSSDSSDSSDSSDSSDSSDSSDSSDSSDSSDSSDSSDSSDSSDDEG
modifications: derived from consensus mammalian sequence of DSPP; (8)..(68) [Asp Ser Ser] repeats (n varies from 2 to 20); (1)..(3) Insertion of 3 Arg at the N terminus of the peptide; (4)..(7) Casein kinase 1 recognition motif; (69)..(71) Casein kinase 2 recognition motif
- purity (crude or final not stated): 92.26%

From patent publication US10736988B2 (UNIVERSITY OF PITTSBURGH—OF THE COMMONWEALTH SYSTEM OF …, priority 2012, dated 2020)
